The text below walks through data of article PMC10630885.

The chains behind the UniProt entries cited, without tags or fusion partners. Residues count along the entry.
UniProt P11021, residues 19-654: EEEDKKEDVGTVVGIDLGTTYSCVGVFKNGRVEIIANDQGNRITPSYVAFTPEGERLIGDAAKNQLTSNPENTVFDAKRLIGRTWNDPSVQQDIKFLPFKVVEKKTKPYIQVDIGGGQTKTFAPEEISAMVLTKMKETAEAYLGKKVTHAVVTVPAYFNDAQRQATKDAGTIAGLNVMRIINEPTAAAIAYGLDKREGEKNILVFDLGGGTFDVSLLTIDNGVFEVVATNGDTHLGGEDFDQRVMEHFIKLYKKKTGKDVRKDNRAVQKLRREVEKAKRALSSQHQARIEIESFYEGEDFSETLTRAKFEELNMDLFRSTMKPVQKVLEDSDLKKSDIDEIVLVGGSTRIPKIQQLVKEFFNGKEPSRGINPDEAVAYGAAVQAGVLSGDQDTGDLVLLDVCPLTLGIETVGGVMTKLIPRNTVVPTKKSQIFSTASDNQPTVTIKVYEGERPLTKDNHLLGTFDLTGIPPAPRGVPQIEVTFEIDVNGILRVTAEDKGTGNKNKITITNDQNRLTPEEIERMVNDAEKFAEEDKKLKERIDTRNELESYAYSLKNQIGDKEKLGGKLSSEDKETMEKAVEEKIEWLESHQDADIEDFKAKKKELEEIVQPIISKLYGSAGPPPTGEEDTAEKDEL

The target of this test is T1, HA-tagged NRF3-BioID fusion protein (human) (UniProt Q9Y4A8).
T1 sequence: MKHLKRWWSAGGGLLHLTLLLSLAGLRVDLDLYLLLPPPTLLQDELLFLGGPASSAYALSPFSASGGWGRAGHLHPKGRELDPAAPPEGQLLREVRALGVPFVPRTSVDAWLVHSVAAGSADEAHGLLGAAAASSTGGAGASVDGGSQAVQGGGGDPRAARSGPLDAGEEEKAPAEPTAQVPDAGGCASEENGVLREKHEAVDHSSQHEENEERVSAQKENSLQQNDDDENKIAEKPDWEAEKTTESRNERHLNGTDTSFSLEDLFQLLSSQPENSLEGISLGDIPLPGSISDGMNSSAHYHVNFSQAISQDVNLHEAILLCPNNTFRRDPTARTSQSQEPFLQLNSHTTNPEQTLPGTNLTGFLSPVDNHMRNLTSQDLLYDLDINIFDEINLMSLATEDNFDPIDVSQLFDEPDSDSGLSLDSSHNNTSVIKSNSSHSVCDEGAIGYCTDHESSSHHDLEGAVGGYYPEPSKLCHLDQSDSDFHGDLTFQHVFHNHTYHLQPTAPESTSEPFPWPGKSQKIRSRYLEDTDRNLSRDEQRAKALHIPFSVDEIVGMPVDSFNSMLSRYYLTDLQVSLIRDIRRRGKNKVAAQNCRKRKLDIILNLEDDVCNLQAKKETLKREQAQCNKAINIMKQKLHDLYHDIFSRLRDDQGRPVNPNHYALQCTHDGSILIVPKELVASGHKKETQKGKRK
The test can be described thus: proximity labelling; BioID in SCC13 and HaCaT cells with Dox-inducible NRF3-BioID-HA; 50 μM biotin and 1 μg/ml Dox or DMSO for 24 h, with or without 10 μM MG-132 for 6 h; streptavidin beads, LC-MS/MS; SAINT probability ≥ 0.95, all three replicates, both cell lines.

No constants are given. Whether binding was seen depends on the method and setting. Binding seen in cells or lysates may run through a third protein. A yes stands for co-enrichment or nearness to the bait. Other partners may have been found. Sequences can lack the tags named with a protein.

Regarding “heat shock protein A5 (HSPA5) (from UniProt P11021 19-654)”, the binding entry is “binds”.
